Reference: paper PMC11714857, “PRDX5 and PRDX6 translocation and oligomerization in bull sperm: a response to cryopreservation-induced oxidative stress” (Cell Communication and Signaling : CCS, 2025)
No constants are given. Whether binding was seen depends on the method and setting. In cells and extracts the contact can be indirect. Some binding calls cover weakened binding; strength is not graded here.

T1: Toll-like receptor 4 (bovine (endogenous in bull sperm)) (UniProt Q9GL65)
T1 sequence: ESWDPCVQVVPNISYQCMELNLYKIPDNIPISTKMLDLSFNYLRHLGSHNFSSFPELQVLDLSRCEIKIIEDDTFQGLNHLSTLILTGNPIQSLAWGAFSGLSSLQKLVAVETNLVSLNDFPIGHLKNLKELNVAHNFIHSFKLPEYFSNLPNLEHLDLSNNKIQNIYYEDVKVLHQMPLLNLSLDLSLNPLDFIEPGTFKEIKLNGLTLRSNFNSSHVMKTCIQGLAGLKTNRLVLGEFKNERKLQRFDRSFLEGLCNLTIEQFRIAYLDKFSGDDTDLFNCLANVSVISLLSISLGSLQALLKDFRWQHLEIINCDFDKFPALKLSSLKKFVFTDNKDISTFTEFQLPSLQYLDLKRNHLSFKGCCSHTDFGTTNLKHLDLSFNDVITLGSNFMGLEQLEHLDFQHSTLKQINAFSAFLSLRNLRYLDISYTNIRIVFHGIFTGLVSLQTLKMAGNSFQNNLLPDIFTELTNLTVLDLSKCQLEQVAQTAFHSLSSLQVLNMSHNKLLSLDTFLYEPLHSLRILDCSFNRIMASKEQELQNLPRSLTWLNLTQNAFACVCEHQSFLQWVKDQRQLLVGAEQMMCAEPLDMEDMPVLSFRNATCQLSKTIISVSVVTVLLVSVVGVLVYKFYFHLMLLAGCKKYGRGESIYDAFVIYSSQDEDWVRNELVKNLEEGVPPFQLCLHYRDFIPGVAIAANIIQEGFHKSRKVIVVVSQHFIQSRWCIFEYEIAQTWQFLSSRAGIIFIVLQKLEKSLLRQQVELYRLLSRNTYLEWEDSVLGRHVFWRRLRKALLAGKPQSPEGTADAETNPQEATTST

B1: peroxiredoxin 5 (enzyme, Bos taurus (endogenous in bull sperm), UniProt Q9BGI1 58-219, looked up)
chain: MAPIKVGDAIPSVEVFEKEPGNKVNLAELFKGKKGVLFGLPGAFTPGCSKTHLPGFVEQADALKAKGIQVVACLTVNDVFVTEEWARAHKAEGKVRLLADPSGTFGKETDLLLDDSLLFLFGNHRLKRFSMVIEDGIVKSLNVEPDGTGLTCSLAPNILSQL
notes: peroxiredoxin 5 (PRDX5) from Bos taurus, endogenous in bull sperm; runs as a single 17.5 kDa band in standard SDS-PAGE; The oligomers are disulfide-linked, as they appear only in non-reducing SDS-PAGE; also called PRDX5; source: endogenous, bull sperm lysate (native protein extraction; fresh or cryopreserved sperm)
B2: peroxiredoxin 6 (enzyme, bovine (endogenous in bull sperm), UniProt O77834 1-224, looked up)
chain: MPGGLLLGDEAPNFEANTTIGRIRFHDYLGDSWGILFSHPRDFTPVCTTELGRAAKLAPEFAKRNVKMIALSIDSVEDHLAWSKDINAYNGEEPTEKLPFPIIDDKNRDLAIQLGMLDPAEKDEKGMPVTARVVFIFGPDKKLKLSILYPATTGRNFDEILRVIISLQLTAEKRVATPVDWKNGDSVMVLPTIPEEEAKKLFPKGVFTKELPSGKKYLRYTPQP
notes: peroxiredoxin 6 (PRDX6), bovine, endogenous in bull sperm; runs as a single 25 kDa band in standard SDS-PAGE; The oligomers are disulfide-linked, as they appear only in non-reducing SDS-PAGE; also called PRDX6; source: endogenous, bull sperm lysate (native protein extraction; fresh or cryopreserved sperm)

Molecular target: T1, Toll-like receptor 4 (bovine (endogenous in bull sperm))
Assay: co-IP; anti-TLR4 monoclonal antibodies immobilised on a HiTrap Protein A HP column; bull sperm lysate in 20 mM sodium phosphate buffer pH 7.0 passed through; eluted with 0.1 M citric acid; eluate analysed by non-reducing SDS-PAGE and Western blot for PRDX5 and PRDX6

| Binder | binding |
| --- | --- |
| B1 | binds |
| B2 | binds |
